# Experimental data taken from the supplement of paper PMC8728848.
# This is one part of the list.
# B1: Aap lectin (Staphylococcus epidermidis) (protein)
# chain: VNLNYSSPFMSLLSMPADSSSNNTKNTIDIPPTTVKGRDNYDFYGRVDIESNPTDLNATNLTRYNYGQPPGTTTAGAVQFKNQVSFDKDFDFNIRVANNRQSNTTGADGWGFMFSKKDGDDFLKNGGILREKGTPSAAGFRIDTGYYNNDPLDKIQKQAGQGYRGYGTFVKNDSQGNTSKVGSGTPSTDFLNYADNTTNDLDGKFHGQKLNNVNLKYNASNQTFTATYAGKTWTATLSELGLSPTDSYNFLVTSS
# What was measured:
# Experiment in all cases: glycan array binding signal (z-score within array); higher = stronger binding
# Details in all cases: glycan notation: IUPAC condensed, linker removed
# [1] = target: Gal(b1-3)GlcNAc(b1-2)Man(a1-3)[Gal(b1-3)GlcNAc(b1-2)Man(a1-6)]Man(b1-4)GlcNAc(b1-4)[Fuc(a1-6)]GlcNAc
# Outline: (§1)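 The binding signal is a Z-score computed within each array and averaged over linkers. Arrays of the same protein sequence at different concentrations or buffers were also averaged together. Data originate from 3228 arrays in the Consortium for Functional Glycomics database, kept only where the protein sequence was available.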
# [2] = target: Gal(b1-3)GlcNAc(b1-2)Man(a1-3)[GlcNAc(b1-4)][Gal(b1-3)GlcNAc(b1-2)Man(a1-6)]Man(b1-4)GlcNAc(b1-4)GlcNAc
# Outline: as §1
# [3] = target: Gal(b1-3)GlcNAc(b1-2)[Gal(b1-3)GlcNAc(b1-6)]Man(a1-6)[Gal(b1-3)GlcNAc(b1-2)Man(a1-3)]Man(b1-4)GlcNAc(b1-4)GlcNAc
# Outline: as §1
# [4] = target: Gal(b1-3)GlcNAc(b1-3)Gal(b1-3)GlcNAc
# Outline: as §1
# [5] = target: Gal(b1-3)GlcNAc(b1-3)Gal(b1-4)Glc
# Outline: as §1
# [6] = target: Gal(b1-3)GlcNAc(b1-3)Gal(b1-4)GlcNAc
# Outline: as §1
# [7] = target: Gal(b1-3)GlcNAc(b1-3)Gal(b1-4)GlcNAc(b1-2)Man(a1-3)[Gal(b1-3)GlcNAc(b1-3)Gal(b1-4)GlcNAc(b1-2)Man(a1-6)]Man(b1-4)GlcNAc(b1-4)GlcNAc
# Outline: as §1
# [8] = target: Gal(b1-3)GlcNAc(b1-3)Gal(b1-4)GlcNAc(b1-2)[Gal(b1-3)GlcNAc(b1-3)Gal(b1-4)GlcNAc(b1-6)]Man(a1-6)[Gal(b1-3)GlcNAc(b1-3)Gal(b1-4)GlcNAc(b1-2)Man(a1-3)]Man(b1-4)GlcNAc(b1-4)[Fuc(a1-6)]GlcNAc
# Outline: as §1
# [9] = target: Gal(b1-3)GlcNAc(b1-3)Gal(b1-4)GlcNAc(b1-3)Gal(b1-4)GlcNAc(b1-2)[Gal(b1-3)GlcNAc(b1-3)Gal(b1-4)GlcNAc(b1-3)Gal(b1-4)GlcNAc(b1-6)]Man(a1-6)[Gal(b1-3)GlcNAc(b1-3)Gal(b1-4)GlcNAc(b1-3)Gal(b1-4)GlcNAc(b1-2)Man(a1-3)]Man(b1-4)GlcNAc(b1-4)[Fuc(a1-6)]GlcNAc
# Outline: as §1
# [10] = target: Gal(b1-3)GlcNAc(b1-3)Gal(b1-4)GlcNAc(b1-6)[Gal(b1-3)GlcNAc(b1-3)]Gal(b1-4)Glc
# Outline: as §1
# [11] = target: Gal(b1-3)GlcNAc(b1-3)Gal(b1-4)[Fuc(a1-3)]GlcNAc
# Outline: as §1
# [12] = target: Gal(b1-3)GlcNAc(b1-3)Gal(b1-4)[Fuc(a1-3)]GlcNAc(b1-6)[Gal(b1-3)GlcNAc(b1-3)]Gal(b1-4)Glc
# Outline: as §1
# [13] = target: Gal(b1-3)GlcNAc(b1-3)GalNAc
# Outline: as §1
# [14] = target: Gal(b1-3)GlcNAc(b1-6)Gal(b1-4)GlcNAc
# Outline: as §1
# [15] = target: Gal(b1-3)GlcNAc(b1-6)GalNAc
# Outline: as §1
# [16] = target: Gal(b1-3)GlcNAc(b1-6)[Gal(b1-3)]GalNAc
# Outline: as §1
# [17] = target: Gal(b1-3)GlcNAc6S
# Outline: as §1
# [18] = target: Gal(b1-3)[Fuc(a1-4)]GlcNAc
# Outline: as §1
# [19] = target: Gal(b1-3)[Fuc(a1-4)]GlcNAc(b1-2)Man
# Outline: as §1
# [20] = target: Gal(b1-3)[Fuc(a1-4)]GlcNAc(b1-2)Man(a1-3)[Gal(b1-3)[Fuc(a1-4)]GlcNAc(b1-2)Man(a1-6)]Man(b1-4)GlcNAc(b1-4)[Fuc(a1-6)]GlcNAc
# Outline: as §1
# [21] = target: Gal(b1-3)[Fuc(a1-4)]GlcNAc(b1-3)Gal(b1-3)[Fuc(a1-4)]GlcNAc
# Outline: as §1
# [22] = target: Gal(b1-3)[Fuc(a1-4)]GlcNAc(b1-3)Gal(b1-4)[Fuc(a1-3)]GlcNAc
# Outline: as §1
# [23] = target: Gal(b1-3)[Fuc(a1-4)]GlcNAc(b1-6)GalNAc
# Outline: as §1
# [24] = target: Gal(b1-3)[GlcNAc(b1-6)]GalNAc
# Outline: as §1
# [25] = target: Gal(b1-3)[Neu5Ac(a2-6)]GalNAc
# Outline: as §1
# [26] = target: Gal(b1-3)[Neu5Ac(a2-6)]GlcNAc(b1-4)Gal(b1-4)Glc
# Outline: as §1
# [27] = target: Gal(b1-3)[Neu5Ac(b2-6)]GalNAc
# Outline: as §1
# [28] = target: Gal(b1-4)Gal
# Outline: as §1
# [29] = target: Gal(b1-4)GalNAc(a1-3)[Fuc(a1-2)]Gal(b1-4)GlcNAc
# Outline: as §1
# [30] = target: Gal(b1-4)GalNAc(b1-3)[Fuc(a1-2)]Gal(b1-4)GlcNAc
# Outline: as §1
# [31] = target: Gal(b1-4)Glc
# Outline: as §1
# [32] = target: Gal(b1-4)Glc6S
# Outline: as §1
# [33] = target: Gal(b1-4)GlcNAc
# Outline: as §1
# [34] = target: Gal(b1-4)GlcNAc(a1-6)Gal(b1-4)GlcNAc
# Outline: as §1
# [35] = target: Gal(b1-4)GlcNAc(b1-2)Man
# Outline: as §1
# [36] = target: Gal(b1-4)GlcNAc(b1-2)Man(a1-3)Man(b1-4)GlcNAc(b1-4)GlcNAc
# Outline: as §1
# [37] = target: Gal(b1-4)GlcNAc(b1-2)Man(a1-3)[Gal(b1-4)GlcNAc(b1-2)Man(a1-6)]Man(b1-4)GlcNAc(b1-4)GlcNAc
# Outline: as §1
binder,measurement,setting,value
B1,glycan array binding signal (z-score),[1],1.5
same,glycan array binding signal (z-score),[2],0.743
same,glycan array binding signal (z-score),[3],-0.728
same,glycan array binding signal (z-score),[4],-0.888
same,glycan array binding signal (z-score),[5],-0.9
same,glycan array binding signal (z-score),[6],-0.563
same,glycan array binding signal (z-score),[7],-0.429
same,glycan array binding signal (z-score),[8],0.695
same,glycan array binding signal (z-score),[9],0.056
same,glycan array binding signal (z-score),[10],-0.349
same,glycan array binding signal (z-score),[11],-0.351
same,glycan array binding signal (z-score),[12],-0.569
same,glycan array binding signal (z-score),[13],0.183
same,glycan array binding signal (z-score),[14],-0.777
same,glycan array binding signal (z-score),[15],-0.284
same,glycan array binding signal (z-score),[16],0.191
same,glycan array binding signal (z-score),[17],-0.857
same,glycan array binding signal (z-score),[18],-0.174
same,glycan array binding signal (z-score),[19],0.572
same,glycan array binding signal (z-score),[20],1.15
same,glycan array binding signal (z-score),[21],-0.893
same,glycan array binding signal (z-score),[22],-0.909
same,glycan array binding signal (z-score),[23],1.01
same,glycan array binding signal (z-score),[24],-0.042
same,glycan array binding signal (z-score),[25],-0.302
same,glycan array binding signal (z-score),[26],-0.69
same,glycan array binding signal (z-score),[27],0.985
same,glycan array binding signal (z-score),[28],0.559
same,glycan array binding signal (z-score),[29],-0.883
same,glycan array binding signal (z-score),[30],-0.875
same,glycan array binding signal (z-score),[31],-0.698
same,glycan array binding signal (z-score),[32],-0.825
same,glycan array binding signal (z-score),[33],0.132
same,glycan array binding signal (z-score),[34],-0.288
same,glycan array binding signal (z-score),[35],3
same,glycan array binding signal (z-score),[36],-0.84
same,glycan array binding signal (z-score),[37],0.19

# For reference, part of the list above:
binder,measurement,setting,value
B1,glycan array binding signal (z-score),[14],-0.777
same,glycan array binding signal (z-score),[15],-0.284
